Measured values taken from publication PMC10868123.
Results are given in words; binding and its absence hold for the method and conditions named. In cells and extracts the contact can be indirect. Here binding means that the protein was enriched with, or labelled near, the bait; the list need not be complete.

By UniProt entry, the sequences of proteins in these tests, tags left out. Where a name states a change or a piece, a line headed by the entry shows the natural chain unless it says otherwise.
UniProt P61026: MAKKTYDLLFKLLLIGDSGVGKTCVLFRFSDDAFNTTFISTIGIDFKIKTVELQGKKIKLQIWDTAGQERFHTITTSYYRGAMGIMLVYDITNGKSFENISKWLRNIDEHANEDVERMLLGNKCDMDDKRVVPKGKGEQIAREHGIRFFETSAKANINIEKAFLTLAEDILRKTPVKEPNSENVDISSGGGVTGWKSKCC
UniProt Q709C8: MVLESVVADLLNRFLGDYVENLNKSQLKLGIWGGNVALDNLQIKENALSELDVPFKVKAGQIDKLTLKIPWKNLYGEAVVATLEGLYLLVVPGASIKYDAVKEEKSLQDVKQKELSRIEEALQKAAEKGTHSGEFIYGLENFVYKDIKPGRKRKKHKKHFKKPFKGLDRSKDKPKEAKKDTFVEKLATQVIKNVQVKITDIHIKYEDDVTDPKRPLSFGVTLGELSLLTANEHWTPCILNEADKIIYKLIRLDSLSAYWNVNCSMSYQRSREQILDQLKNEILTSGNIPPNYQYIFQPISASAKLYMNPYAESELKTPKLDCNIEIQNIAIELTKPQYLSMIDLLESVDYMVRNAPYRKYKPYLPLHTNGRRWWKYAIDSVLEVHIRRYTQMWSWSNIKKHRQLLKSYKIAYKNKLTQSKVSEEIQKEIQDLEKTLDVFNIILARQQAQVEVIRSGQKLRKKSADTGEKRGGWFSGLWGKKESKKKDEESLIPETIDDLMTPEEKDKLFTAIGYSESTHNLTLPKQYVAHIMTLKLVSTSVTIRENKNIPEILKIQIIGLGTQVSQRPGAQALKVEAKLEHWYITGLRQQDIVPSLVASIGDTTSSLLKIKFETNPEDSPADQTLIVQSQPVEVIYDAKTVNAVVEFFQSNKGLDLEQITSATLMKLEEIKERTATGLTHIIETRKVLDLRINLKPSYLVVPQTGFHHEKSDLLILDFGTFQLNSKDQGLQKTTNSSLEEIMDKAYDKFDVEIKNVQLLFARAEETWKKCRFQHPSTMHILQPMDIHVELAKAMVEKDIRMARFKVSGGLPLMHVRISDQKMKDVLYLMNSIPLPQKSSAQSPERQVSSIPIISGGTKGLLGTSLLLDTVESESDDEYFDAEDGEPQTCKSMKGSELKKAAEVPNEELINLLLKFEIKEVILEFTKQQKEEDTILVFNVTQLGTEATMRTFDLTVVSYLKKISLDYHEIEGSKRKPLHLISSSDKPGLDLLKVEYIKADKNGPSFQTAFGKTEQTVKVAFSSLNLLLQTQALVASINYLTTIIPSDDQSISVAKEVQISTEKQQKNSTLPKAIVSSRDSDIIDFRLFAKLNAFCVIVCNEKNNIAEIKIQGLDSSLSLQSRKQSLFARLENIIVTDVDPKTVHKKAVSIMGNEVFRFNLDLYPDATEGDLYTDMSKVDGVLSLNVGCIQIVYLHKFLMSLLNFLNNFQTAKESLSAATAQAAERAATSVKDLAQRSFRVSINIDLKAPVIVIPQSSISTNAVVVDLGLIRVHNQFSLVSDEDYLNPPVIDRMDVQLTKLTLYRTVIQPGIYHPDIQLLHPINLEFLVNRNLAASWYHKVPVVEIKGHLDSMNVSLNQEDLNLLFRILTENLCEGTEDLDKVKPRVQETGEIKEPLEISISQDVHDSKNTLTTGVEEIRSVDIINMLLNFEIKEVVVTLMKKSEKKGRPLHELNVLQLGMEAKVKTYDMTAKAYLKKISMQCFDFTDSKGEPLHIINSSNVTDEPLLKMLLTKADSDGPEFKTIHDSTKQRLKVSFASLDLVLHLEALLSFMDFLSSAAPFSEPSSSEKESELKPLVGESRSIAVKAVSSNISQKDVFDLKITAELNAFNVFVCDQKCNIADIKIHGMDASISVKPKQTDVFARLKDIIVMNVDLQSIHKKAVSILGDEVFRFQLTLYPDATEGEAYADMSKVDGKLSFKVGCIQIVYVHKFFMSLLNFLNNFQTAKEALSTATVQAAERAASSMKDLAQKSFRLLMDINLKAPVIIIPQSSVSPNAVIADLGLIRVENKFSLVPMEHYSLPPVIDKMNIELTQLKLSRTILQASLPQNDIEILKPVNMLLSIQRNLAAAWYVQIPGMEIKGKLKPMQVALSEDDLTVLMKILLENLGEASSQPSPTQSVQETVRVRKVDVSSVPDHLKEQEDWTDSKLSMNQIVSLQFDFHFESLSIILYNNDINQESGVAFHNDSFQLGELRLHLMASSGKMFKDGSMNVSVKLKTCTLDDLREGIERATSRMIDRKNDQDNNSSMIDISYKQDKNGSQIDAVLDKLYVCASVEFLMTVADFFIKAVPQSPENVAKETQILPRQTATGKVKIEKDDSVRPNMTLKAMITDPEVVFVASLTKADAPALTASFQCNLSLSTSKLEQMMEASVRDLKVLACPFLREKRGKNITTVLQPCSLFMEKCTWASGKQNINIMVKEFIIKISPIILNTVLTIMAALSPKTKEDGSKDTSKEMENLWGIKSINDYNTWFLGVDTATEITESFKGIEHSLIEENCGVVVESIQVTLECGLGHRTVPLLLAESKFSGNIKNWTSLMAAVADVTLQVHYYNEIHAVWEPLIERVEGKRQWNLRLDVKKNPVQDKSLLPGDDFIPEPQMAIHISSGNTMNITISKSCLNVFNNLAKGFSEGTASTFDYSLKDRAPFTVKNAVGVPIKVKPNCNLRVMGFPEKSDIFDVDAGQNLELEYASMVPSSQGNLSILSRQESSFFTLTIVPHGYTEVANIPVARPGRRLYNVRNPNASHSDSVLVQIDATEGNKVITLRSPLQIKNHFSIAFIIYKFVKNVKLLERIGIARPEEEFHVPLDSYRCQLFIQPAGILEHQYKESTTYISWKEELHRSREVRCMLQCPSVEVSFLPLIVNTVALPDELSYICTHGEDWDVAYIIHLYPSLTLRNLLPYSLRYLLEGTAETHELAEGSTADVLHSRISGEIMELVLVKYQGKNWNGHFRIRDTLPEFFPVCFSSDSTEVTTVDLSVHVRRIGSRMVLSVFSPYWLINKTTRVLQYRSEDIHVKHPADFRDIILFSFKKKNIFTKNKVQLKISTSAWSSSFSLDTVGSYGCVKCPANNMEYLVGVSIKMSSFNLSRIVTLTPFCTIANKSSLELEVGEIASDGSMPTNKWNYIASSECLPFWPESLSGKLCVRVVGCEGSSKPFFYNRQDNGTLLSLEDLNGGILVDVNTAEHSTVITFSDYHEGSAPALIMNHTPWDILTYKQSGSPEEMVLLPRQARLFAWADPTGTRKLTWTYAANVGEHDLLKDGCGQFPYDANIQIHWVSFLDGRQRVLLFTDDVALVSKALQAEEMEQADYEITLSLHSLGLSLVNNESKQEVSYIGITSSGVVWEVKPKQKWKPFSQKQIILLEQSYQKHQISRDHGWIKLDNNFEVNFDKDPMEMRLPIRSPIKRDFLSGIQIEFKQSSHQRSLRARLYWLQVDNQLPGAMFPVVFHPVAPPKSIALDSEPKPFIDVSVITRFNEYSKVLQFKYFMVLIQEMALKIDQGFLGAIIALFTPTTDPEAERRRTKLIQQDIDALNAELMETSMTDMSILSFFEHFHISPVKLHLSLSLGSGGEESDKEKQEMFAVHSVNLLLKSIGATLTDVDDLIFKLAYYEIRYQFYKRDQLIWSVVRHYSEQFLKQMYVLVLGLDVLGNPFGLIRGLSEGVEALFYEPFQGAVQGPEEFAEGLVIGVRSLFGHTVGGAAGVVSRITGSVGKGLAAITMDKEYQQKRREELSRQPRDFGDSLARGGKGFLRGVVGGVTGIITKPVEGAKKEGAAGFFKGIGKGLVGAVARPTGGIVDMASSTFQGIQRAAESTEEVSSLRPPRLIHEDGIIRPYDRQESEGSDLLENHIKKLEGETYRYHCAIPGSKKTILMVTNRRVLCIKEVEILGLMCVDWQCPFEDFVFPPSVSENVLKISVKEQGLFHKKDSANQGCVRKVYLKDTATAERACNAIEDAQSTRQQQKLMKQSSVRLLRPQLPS

Experiments:
[1] = target: phosphomimetic GFP-Rab10 T73E (UniProt P61026); assay: affinity purification with mass spectrometry; GFP-Rab10 WT, T73E, T73A or mock-GFP precipitated with GFP-Trap beads from lysate of transfected HEK-293 T cells; on-bead trypsin digestion, Orbitrap Fusion Tribrid MS; T73E compared with T73A
[2] = target: phosphodeficient GFP-Rab10 T73A (UniProt P61026); assay: as above

| binding [1] | binding [2] | Molecule |
| --- | --- | --- |
| binds |  | VPS13C, endogenous in HEK-293 cells (from UniProt Q709C8 1-3753) |
|  | binds | GDP-dissociation inhibitor 1 (GDI1) (protein, UniProt P31150 1-447) MDEEYDVIVLGTGLTECILSGIMSVNGKKVLHMDRNPYYGGESSSITPLEELYKRFQLLEGPPESMGRGRDWNVDLIPKFLMANGQLVKMLLYTEVTRYLDFKVVEGSFVYKGGKIYKVPSTETEALASNLMGMFEKRRFRKFLVFVANFDENDPKTFEGVDPQTTSMRDVYRKFDLGQDVIDFTGHALALYRTDDYLDQPCLETVNRIKLYSESLARYGKSPYLYPLYGLGELPQGFARLSAIYGGTYMLNKPVDDIIMENGKVVGVKSEGEVARCKQLICDPSYIPDRVRKAGQVIRIICILSHPIKNTNDANSCQIIIPQNQVNRKSDIYVCMISYAHNVAAQGKYIAIASTTVETTDPEKEVEPALELLEPIDQKFVAISDLYEPIDDGCESQVFCSCSYDATTHFETTCNDIKDIYKRMAGTAFDFENMKRKQNDVFGEAEQ |
|  | binds | GDI2 (protein, UniProt P50395 1-445) MNEEYDVIVLGTGLTECILSGIMSVNGKKVLHMDRNPYYGGESASITPLEDLYKRFKIPGSPPESMGRGRDWNVDLIPKFLMANGQLVKMLLYTEVTRYLDFKVTEGSFVYKGGKIYKVPSTEAEALASSLMGLFEKRRFRKFLVYVANFDEKDPRTFEGIDPKKTTMRDVYKKFDLGQDVIDFTGHALALYRTDDYLDQPCYETINRIKLYSESLARYGKSPYLYPLYGLGELPQGFARLSAIYGGTYMLNKPIEEIIVQNGKVIGVKSEGEIARCKQLICDPSYVKDRVEKVGQVIRVICILSHPIKNTNDANSCQIIIPQNQVNRKSDIYVCMISFAHNVAAQGKYIAIVSTTVETKEPEKEIRPALELLEPIEQKFVSISDLLVPKDLGTESQIFISRTYDATTHFETTCDDIKNIYKRMTGSEFDFEEMKRKKNDIYGED |
